According to PubChem BioAssay AID330 (DTP/NCI, 2004):
The list does not hold the whole screen: it gathers tests that were run many times, whatever their T/C, doses with no T/C, and many T/C values between a quarter and a half above the control. Other doses and runs of a compound stand elsewhere. T/C: endpoint of the treated group in % of that of the vehicle group. Some doses have a count of surviving animals in place of a T/C: the source holds a T/C of zero for them, seemingly a mark for toxic or unscored doses. Some doses without a T/C left all or most animals alive at the check, yet need not have been tolerated: survival well below the control is almost never listed, so the zero probably covers shortened survival too. Counts of survivors are from the toxicity check (mostly the fifth day) where no day follows; animals may have died later. Schedule codes are those of the source, taken here to give the interval after Q, in days (D) or hours (H), and the number of doses after X. Some entries were tested several times; the values are given in rising order. Where survival is the endpoint, the PubChem record calls one and a half times the control and up active, and a quarter to a half above the control has no call in these data; cut-offs in other NCI protocols can differ. Some T/C values carry the count of animals alive at the toxicity check (mostly the fifth day); where none is given, no animal had died by that day.

Test system: P388 leukemia ip, CD2F1 mice, survival T/C
Experiment: NCI In Vivo Anticancer Drug Screen. Data for tumor model P388 Leukemia (intraperitoneal) in CD2F1 (CDF1) mice
Conditions: T/C endpoint: median survival time, higher T/C = longer survival
[1] = dose: 200.0 mg/kg/injection, schedule: Q04DX002 (ip), vehicle: saline with Tween-80
[2] = dose: 100.0 mg/kg/injection, schedule: Q01DX009 (ip), vehicle: saline with Tween-80
[3] = dose: 400.0 mg/kg/injection, schedule: Q04DX003 (ip), vehicle: saline with Tween-80
[4] = dose: 200.0 mg/kg/injection, schedule: Q01DX005 (ip), vehicle: saline
[5] = dose: 200.0 mg/kg/injection, schedule: Q01DX009 (ip), vehicle: saline
[6] = dose: 200.0 mg/kg/injection, schedule: Q01DX009 (ip), vehicle: saline with Tween-80

For `COC1CC(OC2CCC3(C)C(=CCC4C3C(OC(C)=O)C(OC(=O)CC(C)C)C3(C)C(C(C)=O)CCC43O)C2)OC(C)C1OC1CC(OC)C(OC2CC(OC)C(OC3OC(C)C(O)C(OC)C3O)C(C)O2)C(C)O1` (stereo unspecified), the survivor count (dose: 16.5 mg/kg/injection, schedule: Q01DX005 (ip), vehicle: Klucel (hydroxypropylcellulose) (HPC)) was 5 of 6 and the survivor count (dose: 33.0 mg/kg/injection, schedule: Q01DX005 (ip), vehicle: Klucel (hydroxypropylcellulose) (HPC)) was 0 of 6.

For `Cc1nnc2c3nccn3ccn12`, the survivor count (dose: 100.0 mg/kg/injection, schedule: Q01DX001 (ip), vehicle: saline with Tween-80) was 3 of 6, the survivor count (dose: 200.0 mg/kg/injection, schedule: Q01DX001 (ip), vehicle: saline with Tween-80) was 0 of 6 and the survivor count (dose: 400.0 mg/kg/injection, schedule: Q01DX001 (ip), vehicle: saline with Tween-80) was 0 of 6.

In the case of `C/C(=N\NC(N)=Nc1ccc(Cl)cc1)c1ccc(Cl)c(Cl)c1`, the survivor count [1] is reported as 0 of 6 and the survivor count (dose: 400.0 mg/kg/injection, schedule: Q04DX002 (ip), vehicle: saline with Tween-80) is reported as 1 of 6.

With `Clc1cc(Cl)c2n[se]nc2n1` the survivor count (dose: 200.0 mg/kg/injection, schedule: Q04DX002 (ip), vehicle: saline) was 1 of 6 and the survivor count (dose: 400.0 mg/kg/injection, schedule: Q04DX002 (ip), vehicle: saline) was 0 of 6.

`O=C(C#Cc1ccccc1)c1ccccc1` was tested, and the T/C (dose: 25.0 mg/kg/injection, schedule: Q01DX009 (ip), vehicle: saline with Tween-80) was 125 % of control, the survivor count (dose: 50.0 mg/kg/injection, schedule: Q01DX009 (ip), vehicle: saline with Tween-80) was 3 of 6 and the survivor count [2] was 0 of 6.

`CN1C(=O)Cc2[nH]ccc2C1=O` was tested, and the survivor count (dose: 100.0 mg/kg/injection, schedule: Q04DX003 (ip), vehicle: saline with Tween-80) was 0 of 6, the survivor count (dose: 200.0 mg/kg/injection, schedule: Q04DX003 (ip), vehicle: saline with Tween-80) was 0 of 6 and the survivor count [3] was 0 of 6.

In the case of `ClCc1nnc(-c2ccccc2)o1`, the survivor count (dose: 200.0 mg/kg/injection, schedule: Q01DX009 (ip), vehicle: Klucel (hydroxypropylcellulose) (HPC)) is reported as 5 of 6.

`CSC(=S)N/N=C\c1c(CO)cnc(C)c1O` was tested, and the T/C [1] was 133 % of control.

`Cc1cc(N=Nc2ccc(NC(=O)c3ccc(N)cc3)cc2C)ccc1N=Nc1ccc2c(O)c(N=Nc3ccc(S(=O)(=O)O)cc3)c(S(=O)(=O)O)cc2c1` was tested, and the survivor count [4] was 2 of 6.

For `COc1ccc(C(=O)Nc2ccccc2CCC2CCCCN2C)cc1` (stereo unspecified), the survivor count (dose: 50.0 mg/kg/injection, schedule: Q01DX009 (ip), vehicle: suspension in saline) was 1 of 6 and the survivor count (dose: 100.0 mg/kg/injection, schedule: Q01DX009 (ip), vehicle: suspension in saline) was 0 of 6.

In the case of `O=C/C=C/c1cccc([N+](=O)[O-])c1`, the survivor count (dose: 400.0 mg/kg/injection, schedule: Q01DX009 (ip), vehicle: saline with Tween-80) is reported as 1 of 6.

With `O=C/C(Cl)=C(/Cl)C(=O)O` the T/C (dose: 20.0 mg/kg/injection, schedule: Q01DX009 (ip), vehicle: saline with Tween-80) was 138 % of control [5 of 6 alive].

With `CC1CN1P(=O)(OCCCl)N1CC1C` (stereo unspecified) the survivor count [5] was 4 of 6.

`CC[C@@H]1CN2CCc3c([nH]c4ccccc34)[C@@H]2C[C@@H]1/C(=C\OC)C(=O)OC` was tested, and the survivor count [4] was 0 of 6 and 3 of 6.

In the case of `Nc1ccc(NCCC2CCCN3CCCCC23)c2c(=O)c3ccccc3sc12` (stereo unspecified), the survivor count (dose: 320.0 mg/kg/injection, schedule: Q01DX005 (ip), vehicle: saline with Tween-80) is reported as 5 of 6.

In the case of `CN(C)CCC(=O)c1cccc([N+](=O)[O-])c1`, the survivor count [5] is reported as 1 of 6.

With `CN1CCC2CC1c1ccn(C)c1C2=O` (stereo unspecified) the survivor count (dose: 60.0 mg/kg/injection, schedule: Q01DX005 (ip), vehicle: saline) was 0 of 6, the survivor count (dose: 120.0 mg/kg/injection, schedule: Q01DX005 (ip), vehicle: saline) was 0 of 6 and the survivor count (dose: 240.0 mg/kg/injection, schedule: Q01DX005 (ip), vehicle: saline) was 0 of 6.

`CN=c1ccc2cc3ccc(NC)cc3oc-2c1` was tested, and the survivor count [4] was 0 of 5.

For `CCOC(=O)c1c[nH]c2c(=O)n(C)c(=O)[nH]c12`, the survivor count [3] was 4 of 6.

With `COc1cc(C(C)c2cc3c(cc2OC)OCO3)ccc1OCc1ccccc1` (stereo unspecified) the survivor count (dose: 100.0 mg/kg/injection, schedule: Q01DX005 (ip), vehicle: distilled water + Tween-80) was 6 of 6 and the survivor count (dose: 200.0 mg/kg/injection, schedule: Q01DX005 (ip), vehicle: distilled water + Tween-80) was 6 of 6.

`OC(c1cc(-c2ccccc2)nc2c(Cl)cc(Cl)cc12)C1CCCCN1` (stereo unspecified) was tested, and the survivor count [2] was 6 of 6 and the survivor count [6] was 5 of 6.

For `O=[N+]([O-])c1ccc(S(=O)C2CCCCC2Cl)c([N+](=O)[O-])c1` (stereo unspecified), the survivor count (dose: 400.0 mg/kg/injection, schedule: Q04DX002 (ip), vehicle: Klucel (hydroxypropylcellulose) (HPC)) was 1 of 6.

In the case of `C(=C\c1cc2ccc(C3=NCCN3)cc2[nH]1)/c1ccc(C2=NCCN2)cc1`, the T/C (dose: 12.5 mg/kg/injection, schedule: Q04DX003 (ip), vehicle: saline) is reported as 134 % of control, the T/C (dose: 25.0 mg/kg/injection, schedule: Q04DX003 (ip), vehicle: saline) is reported as 125 % of control and the T/C (dose: 100.0 mg/kg/injection, schedule: Q04DX003 (ip), vehicle: saline) is reported as 132 % of control. The survivor count (dose: 200.0 mg/kg/injection, schedule: Q04DX003 (ip), vehicle: saline) was 0 of 6 and the survivor count (dose: 400.0 mg/kg/injection, schedule: Q04DX003 (ip), vehicle: saline) was 1 of 6.

For `COC(=O)C1CC(=O)N(C)c2sc(C)c(C)c2C1=O` (stereo unspecified), the survivor count [3] was 5 of 6.

`CCOC(=O)Nc1cc(Cl)c2nnn(C(=O)OCC)c2n1` was tested, and the T/C (dose: 25.0 mg/kg/injection, schedule: Q01DX009 (ip), vehicle: other) was 127 % of control.

In the case of `Nc1cn(C2OC(CO)C(O)C2O)c(=O)[nH]c1=O` (stereo unspecified), the survivor count [2] is reported as 6 of 6 and the survivor count [6] is reported as 6 of 6.

With `CCC1(O)CC(OC2CC(N(C)C)C(OC3CC4OC5CC(=O)C(C)OC5OC4C(C)O3)C(C)O2)c2c(cc3c(c2O)C(=O)c2c(O)ccc(O)c2C3=O)C1C(=O)OC` (stereo unspecified) the T/C (dose: 0.5 mg/kg/injection, schedule: Q04DX003 (ip), vehicle: saline with Tween-80) was 125 % of control, the T/C (dose: 1.0 mg/kg/injection, schedule: Q04DX003 (ip), vehicle: other) was 127 % of control and the T/C (dose: 1.0 mg/kg/injection, schedule: Q04DX003 (ip), vehicle: saline with Tween-80) was 125, 127, 131, 133 % of control. The T/C (dose: 2.0 mg/kg/injection, schedule: Q04DX003 (ip), vehicle: other) was 128 % of control, the T/C (dose: 2.0 mg/kg/injection, schedule: Q04DX003 (ip), vehicle: saline with Tween-80) was 125, 130, 134 % of control and the T/C (dose: 2.0 mg/kg/injection, schedule: Q04DX003 (ip), vehicle: water) was 127 % of control. For the same compound, the T/C (dose: 3.0 mg/kg/injection, schedule: Q04DX003 (ip), vehicle: water) was 133 % of control, the T/C (dose: 4.0 mg/kg/injection, schedule: Q04DX003 (ip), vehicle: other) was 147 % of control and the survivor count (dose: 4.0 mg/kg/injection, schedule: Q04DX003 (ip), vehicle: saline with Tween-80) was 5 of 6 and 6 of 6. The T/C (dose: 4.0 mg/kg/injection, schedule: Q04DX003 (ip), vehicle: water) was 147 % of control, the T/C (dose: 5.4 mg/kg/injection, schedule: Q04DX003 (ip), vehicle: water) was 125 % of control and the survivor count (dose: 8.0 mg/kg/injection, schedule: Q04DX003 (ip), vehicle: other) was 6 of 6. For the same compound, the survivor count (dose: 8.0 mg/kg/injection, schedule: Q04DX003 (ip), vehicle: saline with Tween-80) was 3 of 6 and 5 of 6, the survivor count (dose: 8.0 mg/kg/injection, schedule: Q04DX003 (ip), vehicle: water) was 5 of 6 and the T/C (dose: 9.0 mg/kg/injection, schedule: Q04DX003 (ip), vehicle: water) was 147 % of control. For the same compound, the survivor count (dose: 15.0 mg/kg/injection, schedule: Q04DX003 (ip), vehicle: water) was 8 of 8.

In the case of `C#CC(C)(O)C(C)(C)C` (stereo unspecified), the survivor count [5] is reported as 5 of 6.

For `Nc1nnc(-c2ccc(Nc3nc4ccccc4[nH]3)c([N+](=O)[O-])c2)s1`, the survivor count (dose: 240.0 mg/kg/injection, schedule: Q01DX005 (ip), vehicle: saline with Tween-80) was 0 of 6.

In the case of `CC(C)Nc1nc(NCC2CC2)nc(ON2C(=O)CCC2=O)n1`, the survivor count [2] is reported as 6 of 6.

`COc1nc(Cl)cn(C)c1=O` was tested, and the survivor count (dose: 240.0 mg/kg/injection, schedule: Q01DX005 (ip), vehicle: Klucel (hydroxypropylcellulose) (HPC)) was 1 of 6.

`c1ccc2[s+]csc2c1` was tested, and the survivor count (dose: 200.0 mg/kg/injection, schedule: Q01DX009 (ip), vehicle: distilled water + Tween-80) was 0 of 6.
